Measured values published in patent US20150239990A1 (published 2015).
These are yes or no findings as the source states them, for the method shown. Some binding calls cover weakened binding; strength is not graded here. Where a sequence is shown, tags or fusion partners need not be part of it.

The chains behind the UniProt entries cited, without tags or fusion partners. Residues count along the entry.
UniProt P01584, residues 117-269: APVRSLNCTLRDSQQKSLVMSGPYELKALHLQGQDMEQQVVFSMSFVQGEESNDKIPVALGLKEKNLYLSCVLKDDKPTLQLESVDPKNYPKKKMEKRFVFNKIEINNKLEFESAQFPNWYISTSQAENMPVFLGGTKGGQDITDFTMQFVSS

Target: T1, biotinylated human IL-1Beta (human, UniProt P01584 117-269, biotinylated (positions not stated))
T1 construct: In the assays it was biotinylated; also called biot-IL-1Beta
Experiment: phage ELISA: biotinylated IL-1Beta captured on neutravidin, crude phage, anti-M13-HRP
Procedure: Four clones for each Fab were tested to overcome clonal variation (due to bacterial growth, phage production efficiency and toxicity etc. . . . ). Phage ELISA was performed by capturing of biotinylated IL-1Beta on neutravidin coated Maxisorp plate and subsequent incubation of crude phage extract (i.e. bacterial medium). After extensive washing, bound phages were detected with an anti-M13-HRP monoclonal antibody.

B1: safe variant 1F2 (partially humanized, fused to human C-lambda and CH1), Fab displayed on phage (Fab, V domains shown)
VH: EVQLLESGGGLVQPGGSLRLSCAASGFTFSTYAMSWVRQAPGKGPEWVSGINTGGGSTGYADSVKGRFTISRDNSKNTLYLQMNSLRPEDTAVYYCAKDWMATTPWGQGTQVTVSS
VL: QTVVTQEPSFSVSPGGTVTLTCGLSSGSVTTNNYPGWFQQTPGQAPRTLIYNTNNRHSGVPSRFSGSILGNKAALTITGAQADDESDYYCALYMSSGSNNAVFGGGTKLTVLG
notes: also called safe 1F2
binding: binds
